Reference: paper PMC12077180
Results are given in words; binding and its absence hold for the method and conditions named. In cells and extracts the contact can be indirect. Some results given as binding are weak or reduced against the parent protein; the word gives no strength.

Amino acid sequences for entries named in this document (tags omitted).
UniProt P53618: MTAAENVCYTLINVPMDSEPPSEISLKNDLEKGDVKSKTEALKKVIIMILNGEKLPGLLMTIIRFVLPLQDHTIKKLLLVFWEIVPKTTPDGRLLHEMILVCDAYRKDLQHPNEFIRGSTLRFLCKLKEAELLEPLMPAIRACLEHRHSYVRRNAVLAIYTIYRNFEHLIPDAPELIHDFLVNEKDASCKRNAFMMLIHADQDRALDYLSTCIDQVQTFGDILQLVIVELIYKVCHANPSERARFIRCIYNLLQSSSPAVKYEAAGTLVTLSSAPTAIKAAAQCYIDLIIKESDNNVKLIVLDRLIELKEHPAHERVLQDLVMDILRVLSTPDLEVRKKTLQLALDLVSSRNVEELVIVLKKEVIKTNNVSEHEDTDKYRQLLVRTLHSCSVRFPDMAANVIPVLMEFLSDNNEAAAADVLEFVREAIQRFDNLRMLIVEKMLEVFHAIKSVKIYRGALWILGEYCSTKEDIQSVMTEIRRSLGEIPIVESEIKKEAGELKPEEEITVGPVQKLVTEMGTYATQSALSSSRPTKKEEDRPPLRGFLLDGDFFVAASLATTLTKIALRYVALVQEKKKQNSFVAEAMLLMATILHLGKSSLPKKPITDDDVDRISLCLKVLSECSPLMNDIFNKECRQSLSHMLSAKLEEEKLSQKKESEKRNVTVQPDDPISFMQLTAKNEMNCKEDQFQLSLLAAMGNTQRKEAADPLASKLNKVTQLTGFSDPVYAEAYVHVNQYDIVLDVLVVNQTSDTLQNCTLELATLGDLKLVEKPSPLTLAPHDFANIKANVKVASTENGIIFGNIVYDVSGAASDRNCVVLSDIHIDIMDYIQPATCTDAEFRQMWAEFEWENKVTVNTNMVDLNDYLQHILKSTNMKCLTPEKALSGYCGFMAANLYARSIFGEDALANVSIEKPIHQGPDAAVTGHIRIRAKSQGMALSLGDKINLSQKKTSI
UniProt P20339: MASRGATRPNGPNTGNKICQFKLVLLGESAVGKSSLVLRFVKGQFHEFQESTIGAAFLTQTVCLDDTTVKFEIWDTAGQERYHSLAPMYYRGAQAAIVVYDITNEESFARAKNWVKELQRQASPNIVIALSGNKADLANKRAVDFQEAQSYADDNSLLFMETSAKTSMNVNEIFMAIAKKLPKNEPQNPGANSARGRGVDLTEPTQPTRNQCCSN

Columns and labels:
[1] = biological target: COPB1 (COP-I coat complex subunit beta 1) (human (endogenous in HEK293T)) (UniProt P53618); experiment: co-IP
[2] = biological target: RAB5 (Ras-associated protein RAB5A) (human (endogenous in HEK293T)) (UniProt P20339); experiment: co-IP

Row | Substance | binding [1] | binding [2]
1 | RAB5 (Ras-associated protein RAB5A) (from UniProt P20339 1-215) | binds | 
2 | SARS-CoV-2 NSP6-HA (from UniProt P0DTD1 3570-3859) | binds | binds
